In this test the target is His-OmpT (Escherichia coli) (UniProt P09169). In words: other fluorescence titration; intrinsic tryptophan fluorescence of the OMP (0.4 uM) titrated with increasing Spy or Skp; 40 mM HEPES, 150 mM NaCl, 0.24 M urea, pH 7.5; 25 C; excitation 295 nm, emission 305-400 nm; both purified.

The chains behind the UniProt entries cited, without tags or fusion partners. Residues count along the entry.
UniProt P09169, residues 21-317: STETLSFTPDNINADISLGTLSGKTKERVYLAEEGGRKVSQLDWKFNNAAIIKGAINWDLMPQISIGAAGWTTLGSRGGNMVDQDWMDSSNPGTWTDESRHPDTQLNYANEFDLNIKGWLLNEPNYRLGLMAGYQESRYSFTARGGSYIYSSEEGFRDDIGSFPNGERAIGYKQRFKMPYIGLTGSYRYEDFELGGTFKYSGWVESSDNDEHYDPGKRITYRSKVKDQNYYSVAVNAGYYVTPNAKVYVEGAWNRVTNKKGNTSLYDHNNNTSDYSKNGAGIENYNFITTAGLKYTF

No constants are given. Whether binding was seen depends on the method and setting.

B1: periplasmic chaperone Spy (natural protein, Escherichia coli, UniProt P77754 24-161, looked up)
chain: ADTTTAAPADAKPMMHHKGKFGPHQDMMFKDLNLTDAQKQQIREIMKGQRDQMKRPPLEERRAMHDIIASDTFDKVKAEAQIAKMEEQRKANMLAHMETQNKIYNILTPEQKKQFNANFEKRLTERPAAKGKMPATAE
notes: Spy, periplasmic chaperone of Escherichia coli; [U-2H,15N]-labelled in the HSQC experiment with unlabelled OmpX, unlabelled elsewhere; also called wild-type Spy; WT Spy; source: E. coli, from pET28b(+)-HisSUMO-spy, purified (6xHis-SUMO tag removed, cation exchange)
For the molecule B1, the binding entry is “no binding”.
